These are yes or no findings as the source states them, for the method shown. In cells and extracts the contact can be indirect. Some binding calls cover weakened binding; strength is not graded here. Where a sequence is shown, tags or fusion partners need not be part of it.

Chains of the proteins cited; added tags and fusions are not shown.
UniProt O95817: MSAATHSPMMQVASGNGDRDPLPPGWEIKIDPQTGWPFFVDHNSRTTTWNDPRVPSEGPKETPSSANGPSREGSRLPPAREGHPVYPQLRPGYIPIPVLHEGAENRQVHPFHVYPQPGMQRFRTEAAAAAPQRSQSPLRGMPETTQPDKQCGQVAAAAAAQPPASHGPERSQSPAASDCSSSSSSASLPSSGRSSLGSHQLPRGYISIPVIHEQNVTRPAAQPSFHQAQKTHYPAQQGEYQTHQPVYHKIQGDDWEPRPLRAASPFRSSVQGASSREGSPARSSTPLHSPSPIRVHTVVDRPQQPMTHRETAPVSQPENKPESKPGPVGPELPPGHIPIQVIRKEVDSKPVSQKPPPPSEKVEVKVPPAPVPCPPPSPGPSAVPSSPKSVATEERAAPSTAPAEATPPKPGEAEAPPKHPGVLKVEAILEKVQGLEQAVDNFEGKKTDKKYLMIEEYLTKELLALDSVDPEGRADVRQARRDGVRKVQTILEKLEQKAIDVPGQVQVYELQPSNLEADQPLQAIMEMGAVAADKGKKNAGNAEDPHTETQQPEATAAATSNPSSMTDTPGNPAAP

For experiment [1], the target named is T1, V5-tagged HSPB8_WT (heat shock protein family B (small) member 8, wild-type) (human), Q9UJY1.
T1 chain: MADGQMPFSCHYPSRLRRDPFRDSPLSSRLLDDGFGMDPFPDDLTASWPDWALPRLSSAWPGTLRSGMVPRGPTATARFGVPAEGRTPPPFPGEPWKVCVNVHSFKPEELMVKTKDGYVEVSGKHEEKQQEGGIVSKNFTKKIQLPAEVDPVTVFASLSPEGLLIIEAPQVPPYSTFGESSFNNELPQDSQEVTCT
Briefly: co-IP; RIPA-soluble extracts of HEK293T-HSPB8-WT-V5 cells transfected with untagged pCi-HSPB8 constructs, 48 h; anti-V5 (D3H8Q) antibody on Protein A magnetic beads; western blot. Particulars: remark: other sources report otherwise. On the technique in general: Immunoblotting shows a protein as a band on a membrane.

In experiment [2] the target is BAG3 (BAG cochaperone 3) (human (endogenous in HEK293T)) (UniProt O95817). Briefly: co-IP; RIPA-soluble extracts of HEK293T-HSPB8-WT-V5 cells transfected with untagged pCi-HSPB8 constructs, 48 h; anti-BAG3 (Abcam ab47124) antibody on Protein A magnetic beads; western blot.

B1: untagged HSPB8_WT, Q9UJY1 1-196 (protein)
chain: T1 chain
For B1, the binding entry in experiment [1] is listed as “binds”.

B2: untagged HSPB8_WT (protein, UniProt Q9UJY1 1-196)
chain: T1 chain
For the molecule B2, the binding entry in experiment [2] is listed as “binds”.

Values taken from article PMC10351472.
